Results are given in words; binding and its absence hold for the method and conditions named. Binding calls can cover weak binding; strength is not graded here. For part of these data: Binding seen in cells or lysates may run through a third protein. For part of these data: Tags and fused reporters may be left off the sequences shown. Blank lines part the entries; values can stand above or below the molecule they belong to.
Tests used:
[1] = molecular target: T1, Flag-tagged KIF20A, full length (mouse) (UniProt P97329); test: co-IP; plasmids co-transfected into HEK293 cells; lysis buffer 10 mM Tris-HCl pH 7.5, 150 mM NaCl, 1% NP40, 1 mM EDTA, 1 mM DTT; Flag or Myc antibody 1 µg/ml, magnetic protein G beads; western blot
T1 sequence: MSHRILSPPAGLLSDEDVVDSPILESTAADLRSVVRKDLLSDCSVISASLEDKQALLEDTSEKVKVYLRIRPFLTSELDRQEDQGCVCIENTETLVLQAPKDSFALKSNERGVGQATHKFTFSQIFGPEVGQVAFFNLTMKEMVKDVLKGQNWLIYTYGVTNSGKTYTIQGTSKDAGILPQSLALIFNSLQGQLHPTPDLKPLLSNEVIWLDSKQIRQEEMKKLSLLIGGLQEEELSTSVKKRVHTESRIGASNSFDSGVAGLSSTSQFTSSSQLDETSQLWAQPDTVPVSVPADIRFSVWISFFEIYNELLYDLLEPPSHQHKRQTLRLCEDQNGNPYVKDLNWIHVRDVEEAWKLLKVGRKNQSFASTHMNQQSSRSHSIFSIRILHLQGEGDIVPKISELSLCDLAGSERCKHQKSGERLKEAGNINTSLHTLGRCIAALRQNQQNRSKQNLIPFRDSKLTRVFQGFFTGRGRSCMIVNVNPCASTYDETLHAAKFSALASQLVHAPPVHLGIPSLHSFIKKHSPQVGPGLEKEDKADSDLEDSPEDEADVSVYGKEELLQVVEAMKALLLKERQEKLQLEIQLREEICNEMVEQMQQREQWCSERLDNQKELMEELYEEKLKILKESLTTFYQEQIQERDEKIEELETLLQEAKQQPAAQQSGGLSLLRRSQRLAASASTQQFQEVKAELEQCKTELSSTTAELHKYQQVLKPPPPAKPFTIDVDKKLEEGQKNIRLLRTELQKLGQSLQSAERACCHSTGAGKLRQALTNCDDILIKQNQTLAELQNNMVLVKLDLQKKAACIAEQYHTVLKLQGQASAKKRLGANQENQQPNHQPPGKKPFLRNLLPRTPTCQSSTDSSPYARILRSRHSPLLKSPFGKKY

[2] = molecular target: myc-tagged PDZ-RGS3, full length; test: as above
[3] = molecular target: full-length PDZ-RGS3 (two-hybrid bait); test: two-hybrid; mouse E9.5/10.5 embryonic two-hybrid cDNA library screened with full-length PDZ-RGS3 and with the RGS domain alone as baits; 20 million yeast cells with each bait

- binding [1]: binds
Molecule: myc-tagged PDZ-RGS3, full length

- binding [2]: binds
B1: Flag-tagged KIF20A, full length (protein, UniProt P97329 1-887)
chain: T1 sequence

- binding [3]: binds
B2: KIF20A fragment, amino acids 625 to 818 (two-hybrid prey) (domain or fragment, UniProt P97329 625-818)
chain: LKILKESLTTFYQEQIQERDEKIEELETLLQEAKQQPAAQQSGGLSLLRRSQRLAASASTQQFQEVKAELEQCKTELSSTTAELHKYQQVLKPPPPAKPFTIDVDKKLEEGQKNIRLLRTELQKLGQSLQSAERACCHSTGAGKLRQALTNCDDILIKQNQTLAELQNNMVLVKLDLQKKAACIAEQYHTVLKL
